The assay concerns the target BioID2-NICD (HEK293 or NIH3T3 stable line; the text does not tell which) (mouse) (UniProt Q01705). In words: proximity labelling; BioID as in HEK293 and NIH3T3 stable lines; results told for the study as a whole (core-proximal proteins found in at least two of HEK293, 3T3 and BioGRID, and others) without naming the cell line.

Protein sequences, listed by entry. Tags and fused reporters are not part of them. Residues count along the entry.
UniProt Q01705, residues 1749-2293: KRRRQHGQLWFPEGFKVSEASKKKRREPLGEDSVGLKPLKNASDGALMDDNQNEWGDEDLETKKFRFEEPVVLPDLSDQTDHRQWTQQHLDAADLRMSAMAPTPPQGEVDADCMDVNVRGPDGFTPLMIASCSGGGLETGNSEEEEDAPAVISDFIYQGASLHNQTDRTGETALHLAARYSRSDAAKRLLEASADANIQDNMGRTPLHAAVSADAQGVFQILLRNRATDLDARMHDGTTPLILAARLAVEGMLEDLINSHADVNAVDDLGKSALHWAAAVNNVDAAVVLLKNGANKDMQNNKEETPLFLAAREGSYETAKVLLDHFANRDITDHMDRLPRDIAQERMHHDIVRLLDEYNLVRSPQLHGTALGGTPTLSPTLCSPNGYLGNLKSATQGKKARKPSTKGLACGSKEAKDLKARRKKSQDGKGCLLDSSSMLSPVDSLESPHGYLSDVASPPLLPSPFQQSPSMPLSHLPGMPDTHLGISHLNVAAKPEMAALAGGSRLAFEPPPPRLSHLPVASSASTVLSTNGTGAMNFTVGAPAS
UniProt P84095: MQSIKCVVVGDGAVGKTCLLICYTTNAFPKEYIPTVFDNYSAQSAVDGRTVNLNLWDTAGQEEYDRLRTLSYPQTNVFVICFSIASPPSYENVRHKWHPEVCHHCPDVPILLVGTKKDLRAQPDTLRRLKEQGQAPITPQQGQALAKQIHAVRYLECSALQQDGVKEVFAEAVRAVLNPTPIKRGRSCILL
UniProt Q6MZP7: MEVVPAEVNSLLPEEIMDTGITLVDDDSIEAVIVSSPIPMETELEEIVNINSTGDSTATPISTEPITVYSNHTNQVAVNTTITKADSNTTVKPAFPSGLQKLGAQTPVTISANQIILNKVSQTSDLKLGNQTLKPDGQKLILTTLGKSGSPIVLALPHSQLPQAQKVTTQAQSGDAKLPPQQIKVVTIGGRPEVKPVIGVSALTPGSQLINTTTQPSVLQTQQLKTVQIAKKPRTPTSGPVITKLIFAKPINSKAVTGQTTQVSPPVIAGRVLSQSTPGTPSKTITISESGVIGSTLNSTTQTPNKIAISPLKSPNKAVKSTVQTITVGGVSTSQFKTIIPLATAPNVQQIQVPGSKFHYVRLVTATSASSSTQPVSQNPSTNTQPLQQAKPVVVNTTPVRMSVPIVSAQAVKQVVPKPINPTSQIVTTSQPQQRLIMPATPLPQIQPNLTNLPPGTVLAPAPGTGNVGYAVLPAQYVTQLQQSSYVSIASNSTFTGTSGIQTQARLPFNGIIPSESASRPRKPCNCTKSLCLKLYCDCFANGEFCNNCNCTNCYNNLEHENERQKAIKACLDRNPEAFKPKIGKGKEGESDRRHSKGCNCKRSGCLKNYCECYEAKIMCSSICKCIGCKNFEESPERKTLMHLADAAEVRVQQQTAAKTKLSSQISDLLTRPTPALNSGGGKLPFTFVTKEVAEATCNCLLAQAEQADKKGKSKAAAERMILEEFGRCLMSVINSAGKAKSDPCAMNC
UniProt Q969G3: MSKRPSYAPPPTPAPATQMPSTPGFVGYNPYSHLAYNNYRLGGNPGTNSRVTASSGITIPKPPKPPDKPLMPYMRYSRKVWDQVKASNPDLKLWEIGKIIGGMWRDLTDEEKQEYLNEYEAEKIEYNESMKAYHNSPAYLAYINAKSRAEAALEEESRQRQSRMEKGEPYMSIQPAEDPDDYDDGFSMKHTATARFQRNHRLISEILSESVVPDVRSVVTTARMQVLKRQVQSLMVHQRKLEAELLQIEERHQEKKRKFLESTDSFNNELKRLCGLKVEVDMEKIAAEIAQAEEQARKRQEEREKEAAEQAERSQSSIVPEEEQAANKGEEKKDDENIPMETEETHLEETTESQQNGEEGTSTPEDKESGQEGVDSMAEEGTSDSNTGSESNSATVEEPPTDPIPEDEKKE
UniProt Q93009: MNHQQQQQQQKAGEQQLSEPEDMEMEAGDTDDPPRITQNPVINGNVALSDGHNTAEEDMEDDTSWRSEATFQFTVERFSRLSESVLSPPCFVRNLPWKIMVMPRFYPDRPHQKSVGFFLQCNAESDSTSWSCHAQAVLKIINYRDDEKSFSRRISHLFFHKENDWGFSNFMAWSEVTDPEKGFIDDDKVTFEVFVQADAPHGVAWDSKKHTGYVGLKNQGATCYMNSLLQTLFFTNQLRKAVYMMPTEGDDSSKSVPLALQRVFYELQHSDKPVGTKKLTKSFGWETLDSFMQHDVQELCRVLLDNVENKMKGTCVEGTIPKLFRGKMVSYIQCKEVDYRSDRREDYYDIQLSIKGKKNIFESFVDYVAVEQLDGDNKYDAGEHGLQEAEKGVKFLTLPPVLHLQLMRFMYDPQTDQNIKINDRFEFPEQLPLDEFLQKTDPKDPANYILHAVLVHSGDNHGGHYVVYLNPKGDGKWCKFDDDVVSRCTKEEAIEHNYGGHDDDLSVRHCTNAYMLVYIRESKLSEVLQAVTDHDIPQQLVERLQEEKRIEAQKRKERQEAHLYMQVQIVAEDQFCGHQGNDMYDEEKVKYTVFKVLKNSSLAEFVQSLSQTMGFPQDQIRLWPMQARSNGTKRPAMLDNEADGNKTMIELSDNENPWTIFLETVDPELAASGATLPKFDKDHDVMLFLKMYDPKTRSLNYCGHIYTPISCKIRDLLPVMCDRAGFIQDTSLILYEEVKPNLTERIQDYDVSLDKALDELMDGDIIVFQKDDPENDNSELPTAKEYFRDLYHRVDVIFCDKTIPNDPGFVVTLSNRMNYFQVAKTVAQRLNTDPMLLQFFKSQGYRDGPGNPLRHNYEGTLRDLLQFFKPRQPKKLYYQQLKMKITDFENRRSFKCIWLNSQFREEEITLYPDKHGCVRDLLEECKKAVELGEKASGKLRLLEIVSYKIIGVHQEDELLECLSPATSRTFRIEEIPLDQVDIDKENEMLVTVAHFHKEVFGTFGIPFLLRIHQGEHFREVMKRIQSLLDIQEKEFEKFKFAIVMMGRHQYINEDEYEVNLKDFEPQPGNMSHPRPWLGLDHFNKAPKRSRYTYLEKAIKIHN
UniProt P49336: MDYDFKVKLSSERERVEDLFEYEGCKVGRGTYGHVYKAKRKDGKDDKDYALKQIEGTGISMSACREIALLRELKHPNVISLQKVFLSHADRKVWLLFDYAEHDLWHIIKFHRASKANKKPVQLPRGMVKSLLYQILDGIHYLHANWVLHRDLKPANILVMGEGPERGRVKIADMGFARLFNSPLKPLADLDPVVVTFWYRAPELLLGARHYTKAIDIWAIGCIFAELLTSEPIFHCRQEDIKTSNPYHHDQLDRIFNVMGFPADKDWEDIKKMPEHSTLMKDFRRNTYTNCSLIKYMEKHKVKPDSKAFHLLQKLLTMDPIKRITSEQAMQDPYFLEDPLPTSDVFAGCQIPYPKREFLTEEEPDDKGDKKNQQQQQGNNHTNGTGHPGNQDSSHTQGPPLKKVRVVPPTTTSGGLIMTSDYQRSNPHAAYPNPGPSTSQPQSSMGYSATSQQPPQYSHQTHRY
UniProt O15379: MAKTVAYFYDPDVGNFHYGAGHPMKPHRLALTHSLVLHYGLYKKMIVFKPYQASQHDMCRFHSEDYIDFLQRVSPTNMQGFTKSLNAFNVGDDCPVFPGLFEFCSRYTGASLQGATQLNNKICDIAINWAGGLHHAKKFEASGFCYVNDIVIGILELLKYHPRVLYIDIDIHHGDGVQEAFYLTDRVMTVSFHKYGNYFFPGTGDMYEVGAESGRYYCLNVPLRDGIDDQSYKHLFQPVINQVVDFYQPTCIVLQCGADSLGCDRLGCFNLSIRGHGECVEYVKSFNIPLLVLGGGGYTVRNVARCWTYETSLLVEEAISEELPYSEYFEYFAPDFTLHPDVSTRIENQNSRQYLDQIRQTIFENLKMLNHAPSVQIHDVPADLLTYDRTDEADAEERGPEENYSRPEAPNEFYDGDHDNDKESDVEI
UniProt Q9UPN9: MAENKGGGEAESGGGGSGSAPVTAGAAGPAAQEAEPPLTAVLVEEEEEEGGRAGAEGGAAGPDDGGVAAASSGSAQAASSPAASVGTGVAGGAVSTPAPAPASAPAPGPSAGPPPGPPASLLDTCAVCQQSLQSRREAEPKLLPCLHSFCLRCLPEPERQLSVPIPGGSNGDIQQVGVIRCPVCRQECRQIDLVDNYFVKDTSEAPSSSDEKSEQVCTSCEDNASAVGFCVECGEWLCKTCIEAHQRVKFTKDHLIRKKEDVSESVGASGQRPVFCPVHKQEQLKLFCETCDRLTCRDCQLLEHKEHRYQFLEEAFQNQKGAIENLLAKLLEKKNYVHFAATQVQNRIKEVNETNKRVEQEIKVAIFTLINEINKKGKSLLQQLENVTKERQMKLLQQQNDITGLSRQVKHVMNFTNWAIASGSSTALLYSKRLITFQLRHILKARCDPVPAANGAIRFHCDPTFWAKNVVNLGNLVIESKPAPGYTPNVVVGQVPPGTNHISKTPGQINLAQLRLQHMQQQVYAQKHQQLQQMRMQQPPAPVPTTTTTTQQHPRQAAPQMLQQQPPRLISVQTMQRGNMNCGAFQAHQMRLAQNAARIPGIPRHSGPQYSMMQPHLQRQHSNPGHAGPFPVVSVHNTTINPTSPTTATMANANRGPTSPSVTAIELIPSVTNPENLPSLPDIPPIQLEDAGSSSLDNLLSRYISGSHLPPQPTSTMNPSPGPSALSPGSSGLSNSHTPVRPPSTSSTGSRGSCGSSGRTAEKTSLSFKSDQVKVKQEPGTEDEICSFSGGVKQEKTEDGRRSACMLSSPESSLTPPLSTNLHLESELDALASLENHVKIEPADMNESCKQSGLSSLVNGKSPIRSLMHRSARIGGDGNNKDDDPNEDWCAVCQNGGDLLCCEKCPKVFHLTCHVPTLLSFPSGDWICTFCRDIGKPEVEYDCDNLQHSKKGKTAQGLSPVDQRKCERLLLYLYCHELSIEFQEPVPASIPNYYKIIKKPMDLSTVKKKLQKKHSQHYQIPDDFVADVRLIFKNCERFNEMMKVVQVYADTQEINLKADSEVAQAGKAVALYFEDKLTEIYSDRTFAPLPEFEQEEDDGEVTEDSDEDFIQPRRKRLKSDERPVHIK
UniProt Q5VZL5: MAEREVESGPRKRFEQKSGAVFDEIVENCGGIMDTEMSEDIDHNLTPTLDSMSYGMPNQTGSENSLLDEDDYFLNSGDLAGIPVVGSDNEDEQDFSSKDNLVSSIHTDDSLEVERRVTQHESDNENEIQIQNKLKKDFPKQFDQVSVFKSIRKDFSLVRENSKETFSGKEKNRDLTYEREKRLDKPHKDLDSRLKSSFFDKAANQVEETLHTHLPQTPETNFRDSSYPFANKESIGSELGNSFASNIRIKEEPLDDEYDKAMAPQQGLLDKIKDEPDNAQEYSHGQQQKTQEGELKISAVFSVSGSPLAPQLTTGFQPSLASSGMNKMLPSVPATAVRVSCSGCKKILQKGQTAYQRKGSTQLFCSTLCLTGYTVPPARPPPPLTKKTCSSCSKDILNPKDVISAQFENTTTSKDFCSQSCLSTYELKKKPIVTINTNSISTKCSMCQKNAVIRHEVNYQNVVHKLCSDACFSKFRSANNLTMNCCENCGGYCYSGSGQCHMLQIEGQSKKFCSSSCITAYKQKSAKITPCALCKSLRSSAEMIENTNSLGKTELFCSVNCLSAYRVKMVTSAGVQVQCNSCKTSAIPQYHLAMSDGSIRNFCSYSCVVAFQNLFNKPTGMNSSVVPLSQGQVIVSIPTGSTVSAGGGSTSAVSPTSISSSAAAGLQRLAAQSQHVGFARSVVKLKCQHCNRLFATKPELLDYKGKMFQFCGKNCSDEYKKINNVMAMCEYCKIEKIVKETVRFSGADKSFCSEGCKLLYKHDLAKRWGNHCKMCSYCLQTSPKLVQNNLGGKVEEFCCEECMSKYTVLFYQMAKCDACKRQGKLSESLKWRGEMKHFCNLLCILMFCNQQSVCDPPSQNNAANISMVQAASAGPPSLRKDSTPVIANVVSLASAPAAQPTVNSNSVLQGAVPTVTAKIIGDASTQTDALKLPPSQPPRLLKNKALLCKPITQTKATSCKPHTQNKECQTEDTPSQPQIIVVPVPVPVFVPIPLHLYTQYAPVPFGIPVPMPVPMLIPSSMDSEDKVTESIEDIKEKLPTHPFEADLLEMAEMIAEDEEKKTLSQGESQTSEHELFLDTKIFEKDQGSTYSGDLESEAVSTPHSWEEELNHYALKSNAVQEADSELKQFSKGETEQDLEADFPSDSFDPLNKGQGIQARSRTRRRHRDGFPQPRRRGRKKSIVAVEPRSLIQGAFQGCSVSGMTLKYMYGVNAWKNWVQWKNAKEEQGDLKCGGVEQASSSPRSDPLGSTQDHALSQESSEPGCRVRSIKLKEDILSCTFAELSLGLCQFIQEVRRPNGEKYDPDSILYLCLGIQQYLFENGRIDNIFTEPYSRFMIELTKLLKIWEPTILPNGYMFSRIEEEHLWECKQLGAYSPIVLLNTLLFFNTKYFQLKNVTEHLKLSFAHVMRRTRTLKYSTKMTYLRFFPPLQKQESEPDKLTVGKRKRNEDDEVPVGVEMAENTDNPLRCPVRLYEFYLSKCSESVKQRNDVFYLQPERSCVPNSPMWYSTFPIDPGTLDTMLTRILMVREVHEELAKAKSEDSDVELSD

Results are given in words; binding and its absence hold for the method and conditions named. Binding seen in cells or lysates may run through a third protein. These calls come from enrichment with a bait or labelling near it, and not all partners need be listed. No binding means not detected with the bait.

On to “histone demethylase Jumonji domain containing 1C (JMJD1C) (from UniProt Q15652 1-2540)”, for which the binding result is listed as “binds”.
As to “Rho GTPase family member RhoG (from UniProt P84095 1-191)”, the binding entry is recorded as “binds”.
The same measure for XPO5 (from UniProt Q9HAV4 1-1204): “binds”; for PHF21A (from UniProt Q96BD5 1-680): “binds”.
Then LIN54 (from UniProt Q6MZP7 1-749), with “binds”.
As for SMARCE1 (from UniProt Q969G3 1-411), the binding result is “binds”.
TOP2B (from UniProt Q02880 1-1626): the binding result was “binds”.
Consider TCF20 (from UniProt Q9UGU0 1-1960), for which the binding result is “binds”.
On to CTBP2 (from UniProt P56545 1-445), for which the binding result is “binds”.
The same measure for NCOR1 (from UniProt O75376 1-2440): “binds”; for PIAS2 (from UniProt O75928 1-621): “binds”.
The same measure for CHD4 (from UniProt Q14839 1-1912): “binds”; for DIDO1 (from UniProt Q9BTC0 1-2240): “binds”.
Consider RAI1 (from UniProt Q7Z5J4 1-1906), for which the binding entry is “binds”.
For USP7 (from UniProt Q93009 1-1102), the binding result is recorded as “binds”.
Take “DHX15 (BioID prey) (from UniProt O43143 1-795)”: the binding entry is recorded as “binds”.
Then kinase CDK8 (from UniProt P49336 1-464), with “no binding”; and DDX17 (from UniProt Q92841 1-729), with “binds”; and SMARCC2 (from UniProt Q8TAQ2 1-1214), with “binds”.
Then HDAC3 (from UniProt O15379 1-428), with “no binding”.
As for TRIM33 (from UniProt Q9UPN9 1-1127), the binding entry was “binds”.
For ZMYM4 (from UniProt Q5VZL5 1-1548), the binding result was “binds”.
Turning to RBM10 (from UniProt P98175 1-930), the binding entry is on record as “binds”.
The same measure for “β-catenin (CTNNB1) (from UniProt P35222 1-781)”: “binds”; for RBBP6 (from UniProt Q7Z6E9 1-1792): “binds”.
Then NCOA6 (from UniProt Q14686 1-2063), with “binds”; and USP34 (from UniProt Q70CQ2 1-3546), with “binds”; and CFDP1 (from UniProt Q9UEE9 1-299), with “binds”.
The same measure for WIZ (from UniProt O95785 1-1651): “binds”.
For “histone deacetylase (HDAC)1 (BioID prey) (from UniProt Q13547 1-482)”, the binding entry was “binds”.

B1: FLOT1 (protein, UniProt O75955 1-427)
chain: MFFTCGPNEAMVVSGFCRSPPVMVAGGRVFVLPCIQQIQRISLNTLTLNVKSEKVYTRHGVPISVTGIAQVKIQGQNKEMLAAACQMFLGKTEAEIAHIALETLEGHQRAIMAHMTVEEIYKDRQKFSEQVFKVASSDLVNMGISVVSYTLKDIHDDQDYLHSLGKARTAQVQKDARIGEAEAKRDAGIREAKAKQEKVSAQYLSEIEMAKAQRDYELKKAAYDIEVNTRRAQADLAYQLQVAKTKQQIEEQRVQVQVVERAQQVAVQEQEIARREKELEARVRKPAEAERYKLERLAEAEKSQLIMQAEAEAASVRMRGEAEAFAIGARARAEAEQMAKKAEAFQLYQEAAQLDMLLEKLPQVAEEISGPLTSANKITLVSSGSGTMGAAKVTGEVLDILTRLPESVERLTGVSISQVNHKPLRTA
Take B1: the binding result is on record as “binds”.

B2: MARCKS (protein, UniProt P29966 1-332)
chain: MGAQFSKTAAKGEAAAERPGEAAVASSPSKANGQENGHVKVNGDASPAAAESGAKEELQANGSAPAADKEEPAAAGSGAASPSAAEKGEPAAAAAPEAGASPVEKEAPAEGEAAEPGSPTAAEGEAASAASSTSSPKAEDGATPSPSNETPKKKKKRFSFKKSFKLSGFSFKKNKKEAGEGGEAEAPAAEGGKDEAAGGAAAAAAEAGAASGEQAAAPGEEAAAGEEGAAGGDPQEAKPQEAAVAPEKPPASDETKAAEEPSKVEEKKAEEAGASAAACEAPSAAGPGAPPEQEAAPAEEPAAAAASSACAAPSQEAQPECSPEAPPAEAAE
Consider B2, for which the binding entry was “binds”.

B3: AKR1A1 (protein, UniProt P14550 1-325)
chain: MAASCVLLHTGQKMPLIGLGTWKSEPGQVKAAVKYALSVGYRHIDCAAIYGNEPEIGEALKEDVGPGKAVPREELFVTSKLWNTKHHPEDVEPALRKTLADLQLEYLDLYLMHWPYAFERGDNPFPKNADGTICYDSTHYKETWKALEALVAKGLVQALGLSNFNSRQIDDILSVASVRPAVLQVECHPYLAQNELIAHCQARGLEVTAYSPLGSSDRAWRDPDEPVLLEEPVVLALAEKYGRSPAQILLRWQVQRKVICIPKSITPSRILQNIKVFDFTFSPEEMKQLNALNKNWRYIVPMLTVDGKRVPRDAGHPLYPFNDPY
With B3, the binding entry was “binds”.

B4: RBM33 (protein, UniProt Q96EV2 1-1170)
chain: MAAALGASGGAGAGDDDFDQFDKPGAERSWRRRAADEDWDSELEDDLLGEDLLSGKKNQSDLSDEELNDDLLQSDNEDEENFSSQGVTISLNATSGMVTSFELSDNTNDQSGEQESEYEQEQGEDELVYHKSDGSELYTQEYPEEGQYEGHEAELTEDQIEYVEEPEEEQLYTDEVLDIEINEPLDEFTGGMETLELQKDIKEESDEEEEDDEESGRLRFKTERKEGTIIRLSDVTRERRNIPETLELSAEAKAALLEFEERERQHKQGRYSSRRGGRRGGPLMCRGVGDQRRESTERGRMKDHRPALLPTQPPVVPQAPPPPPPPPQQQPIRSLFQPQPLQPLLPVQHPHHPSPPQGMHMPPQLETPRMMMTPPPVTPQQPKNIHINPHFKGTVVTPVQVPLLPVPSQPRPAVGPQRFPGPPEFPQHTPGPVPNSFSQPPRLPLQDQWRAPPPPQDRDPFFLGVSGEPRFPSHLFLEQRSPPPPPPPPTLLNSSHPVPTQSPLPFTQPGPAFNQQGQQPVFPRERPVRPALQPPGPVGILHFSQPGSATTRPFIPPRQPFLPGPGQPFLPTHTQPNLQGPLHPPLPPPHQPQPQQPQQQPPPQHQPPHQPPHQPPPQHQPPPQHPPQHPPQHQHHHHHHHLSVPPPPLMPMSQPQFRPHVQTAQPQASSSRMQCPQRQGLRHNTTSQNVSKRPMQQMQPTAPRNSNLRELPIAPSHVIEMSSSRCSATPSAQVKPIVSASPPSRAVAGSRSSQGKTEVKVKPASPVAQPKEEAKTETEFPDEDEETRLYRLKIEEQKRLREEILKQKELRRQQQAGARKKELLERLAQQQQQLYAPPPPAEQEEQALSPSPTNGNPLLPFPGAQVRQNVKNRLLVKNQDVSISNVQPKTSNFVPSSANMQYQGQQMKALKHLRQTRTVPQSQTQPLHKVLPIKPADVEEPAVPQTPRVASIQGRPQDTKPGVKRTVTHRTNSGGGDGPHISSKVRVIKLSGGGGESDGFFHPEGQPQRLPQPPEVGPQPARKVTLTRGGLQQPPHLPAGPHAHSPVPPGIKSIQGIHPAKKAIMHGRGRGVAGPMGRGRLMPNKQNLRVVECKPQPCVVSVEGLSSSTTDAQLKSLLMSVGPIQSLQMLPQQRKAIAKFKEPAHALAFQQKFHRHMIDLSHINVALIVE
For the molecule B4, the binding result was “binds”.

The record behind these values is publication PMC10788534.
